Laboratory results: doi:10.1101/2024.09.27.615457 (bioRxiv, 2024)

Molecular target: T1, cLuc-bHLH107 (Arabidopsis) (UniProt Q9LET0)
T1 sequence: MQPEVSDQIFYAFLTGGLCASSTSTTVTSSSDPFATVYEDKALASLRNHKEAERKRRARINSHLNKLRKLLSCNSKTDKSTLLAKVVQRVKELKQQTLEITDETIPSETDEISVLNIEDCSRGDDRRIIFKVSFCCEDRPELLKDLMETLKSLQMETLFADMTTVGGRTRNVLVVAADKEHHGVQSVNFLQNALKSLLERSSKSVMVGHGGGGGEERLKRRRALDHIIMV
Assay: split reporter

**Q.** Which binding does the source give for Actin-nLuc here?
**A.** The binding was “no binding”.

These are yes or no findings as the source states them, for the method shown. Binding seen in cells or lysates may run through a third protein. Tags and fused reporters may be left off the sequences shown.
